Test results reported in article PMC11791078, “RECQ4-MUS81 interaction contributes to telomere maintenance with implications to Rothmund-Thomson syndrome” (Nature Communications, 2025).
No constants are given. Whether binding was seen depends on the method and setting. In cells and extracts the contact can be indirect. Some entries that bind do so weakly or less than the wild type. Tags and fused reporters may be left off the sequences shown.

Target: T1, EGFP-RECQ4-WT (UniProt O94761)
T1 sequence: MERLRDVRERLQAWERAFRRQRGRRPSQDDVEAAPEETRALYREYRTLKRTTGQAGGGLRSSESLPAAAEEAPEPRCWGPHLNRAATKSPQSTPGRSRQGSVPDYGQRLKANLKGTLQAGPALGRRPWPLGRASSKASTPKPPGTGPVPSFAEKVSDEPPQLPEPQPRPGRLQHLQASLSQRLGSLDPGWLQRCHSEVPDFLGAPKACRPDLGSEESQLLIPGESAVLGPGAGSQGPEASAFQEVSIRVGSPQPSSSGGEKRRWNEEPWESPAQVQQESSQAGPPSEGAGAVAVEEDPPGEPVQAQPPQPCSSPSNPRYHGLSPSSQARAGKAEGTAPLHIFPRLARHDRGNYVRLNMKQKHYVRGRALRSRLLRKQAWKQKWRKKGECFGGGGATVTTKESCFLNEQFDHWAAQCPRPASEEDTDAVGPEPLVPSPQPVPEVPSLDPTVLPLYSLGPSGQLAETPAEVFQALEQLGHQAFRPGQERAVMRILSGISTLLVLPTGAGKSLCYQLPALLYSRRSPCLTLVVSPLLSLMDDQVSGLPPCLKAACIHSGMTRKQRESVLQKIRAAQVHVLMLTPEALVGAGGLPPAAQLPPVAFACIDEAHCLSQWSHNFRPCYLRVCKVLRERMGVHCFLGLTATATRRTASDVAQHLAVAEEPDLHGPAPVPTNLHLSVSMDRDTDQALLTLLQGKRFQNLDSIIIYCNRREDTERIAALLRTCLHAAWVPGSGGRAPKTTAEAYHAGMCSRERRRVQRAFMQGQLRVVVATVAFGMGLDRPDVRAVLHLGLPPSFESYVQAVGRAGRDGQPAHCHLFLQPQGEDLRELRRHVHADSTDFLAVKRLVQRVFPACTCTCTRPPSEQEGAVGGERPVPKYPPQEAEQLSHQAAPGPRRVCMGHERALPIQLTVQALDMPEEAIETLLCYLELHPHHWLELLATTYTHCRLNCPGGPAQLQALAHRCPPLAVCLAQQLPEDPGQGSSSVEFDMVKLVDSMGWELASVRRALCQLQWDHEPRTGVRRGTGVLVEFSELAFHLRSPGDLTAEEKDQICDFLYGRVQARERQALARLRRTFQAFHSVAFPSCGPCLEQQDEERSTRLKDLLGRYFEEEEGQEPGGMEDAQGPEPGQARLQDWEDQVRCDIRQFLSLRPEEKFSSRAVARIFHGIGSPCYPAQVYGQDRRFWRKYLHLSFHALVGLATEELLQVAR
Test: co-IP; GFP-Trap magnetic particles, 500 µg whole cell lysate of Flp-In T-REx U2OS cells expressing EGFP-RECQ4 constructs, 1 h at 4 °C, three washes, western blot; also cells synchronised in G1/S, S, G2/M and M phase

binding: binds
B1: MUS81 (protein, UniProt Q96NY9 1-551)
chain: MAAPVRLGRKRPLPACPNPLFVRWLTEWRDEATRSRRRTRFVFQKALRSLRRYPLPLRSGKEAKILQHFGDGLCRMLDERLQRHRTSGGDHAPDSPSGENSPAPQGRLAEVQDSSMPVPAQPKAGGSGSYWPARHSGARVILLVLYREHLNPNGHHFLTKEELLQRCAQKSPRVAPGSARPWPALRSLLHRNLVLRTHQPARYSLTPEGLELAQKLAESEGLSLLNVGIGPKEPPGEETAVPGAASAELASEAGVQQQPLELRPGEYRVLLCVDIGETRGGGHRPELLRELQRLHVTHTVRKLHVGDFVWVAQETNPRDPANPGELVLDHIVERKRLDDLCSSIIDGRFREQKFRLKRCGLERRVYLVEEHGSVHNLSLPESTLLQAVTNTQVIDGFFVKRTADIKESAAYLALLTRGLQRLYQGHTLRSRPWGTPGNPESGAMTSPNPLCSLLTFSDFNAGAIKNKAQSVREVFARQLMQVRGVSGEKAAALVDRYSTPASLLAAYDACATPKEQETLLSTIKCGRLQRNLGPALSRTLSQLYCSYGPLT
